{"source": "patent US4246263A", "about": "“Antiinflammatory and immunoregulatory pyrimidines, their method of use and pharmaceutical compositions” (priority 1979, dated 1981)", "test_system": "azathioprine-sensitive, rosette-forming cells", "test": "mouse E-rosette procedure (restoration of azathioprine-sensitive rosette-forming cells in adult thymectomized mice)", "assay_type": "in vivo, mouse (CD-1", "details": "listed as CH2CH2, H", "method": "Antiinflammatory activity is reflected in the so-called rat foot edema test, in which the ability of an oral dose of the compound to inhibit an inflammatory reaction is measured, while immunoregulatory activity is assessed by the so-called mouse E-rosette procedure in which the ability of the test compound to restore erythrocyte rosette formation in thymectomized mice is measured. These tests are described in greater detail below.\nAs mentioned above, the immunoregulatory activity of the compounds of this invention is assessed by the mouse E-rosette procedure. In the mouse, the presence of a thymus is required for full expression of normal rosette formation with sheep erythrocytes [see for example, Bach and Dardenne, Immunol. 25, 353 (1973)]. The procedure examines the ability of a drug to restore azathioprine-sensitive, rosette-forming cells in adult thymectomized mice to the levels of normal animals. Specifically, rosette formation is examined in CD-1 mice thymectomized at 4 weeks of age and left at least 14 days post-surgery before manipulation (ATX mice). The ATX mice are dosed orally either with saline vehicle or drug. Sixteen hours later, single cell suspensions are prepared in Hanks balanced salt solution (HBSS) from the pooled spleens of three mice. To each tube is added 0.1 ml of lymphocytes (6×10^7 /ml) in HBSS and either 0.1 ml of HBSS or 0.1 ml of 40 μg/ml azathioprine in HBSS. After 90 minutes incubation at 37° C., the cells are washed 2× with 5 ml. of HBSS, made back up to 0.2 ml, and 0.2 ml of sheep red blood cells (erythrocytes) at 1.2×10^8 cells/ml. added. Then […] on hemagglutination slides and the number of rosettes counted. The ability of the test compound to restore the number of azathioprine sensitive rosetting cells to normal or higher is determined. In normal mice 42%±12% azathioprine sensitivity is found. In adult thymectomized mice 3±3% azathioprine sensitivity is found.", "note": "Several values for one entry are separate records, joined by “and”; a condition that tells them apart may be missing. Identical values can stand only once. The name of at least one read-out is uncertain."}
{"smiles": "OCCSCc1ccncc1", "note": "[4-(2-Hydroxyethylthiomethyl)pyridine]", "values": [{"measurement": "% Rosetting Cells", "setting": "oral dosage of 1 mg./kg., thymectomized mice", "value": "50% and 43%"}, {"measurement": "% Rosetting Cells", "setting": "oral, 0.03 mg./kg., 1", "value": "21% and 33%"}, {"measurement": "% Rosetting Cells", "setting": "oral, 0.1 mg./kg., 1", "value": "42% and 51%"}, {"measurement": "% Rosetting Cells", "setting": "oral, 0.3 mg./kg. (dose printed twice in footnote b), 1", "value": "60% and 58% and 42% and 53%"}]}
